According to PubChem BioAssay AID588497 (NMMLSC, 2011):
Out of some 360,000 compounds screened, about 780 (0.22%) were called active. Inconclusive means that the source gave no clear call. Such entries were picked first, then a sample of the others. No stated cut-off is given here; in the data, active means inhibition above about 35% (passing the limit was not always enough); inconclusive means no clear call, values can overlap the other calls.

What follows are compounds tested on Botulinum neurotoxin type F light chain protease (Clostridium botulinum) (assay: BoNT/F light chain protease inhibitors, primary screen, biochemical, flow cytometry, MLPCN library (AID 588497; further: plate controls were buffer without enzyme for full effect and enzyme alone for no effect)). Settings: Multiplex microsphere protease cleavage assay, at 10 µM, stronger effect = higher value.

SMILES	inhibition
COc1ccc(NC(=O)CCC(=O)N/N=C/c2ccncc2)cc1	inconclusive: 43.7%
Cc1cc(C)cc(Nc2nc3ccc(C)cc3n3cnnc23)c1	inconclusive: -20.3%
C/C=C/COc1nc2c(c(=O)n(C)c(=O)n2C)n1C	inconclusive: 16.1%
CCC1(c2ccccc2)NC(=O)N(CC(=O)Nc2ccccc2C(=O)NC2CCCC2)C1=O (stereo unspecified)	inconclusive: -1.3%
COc1ccc(CCN2C(=S)N(c3ccc(Cl)cc3)C(=O)C2CC(N)=O)cc1OC (stereo unspecified)	inconclusive: 0.5%
CC(C)NC(=O)CSc1ncccc1-c1nc2ccccc2[nH]1	inconclusive: -30.7%
O=C(Nc1cccc(Cl)c1)c1cnccn1	inconclusive: -16.4%
Cc1c(C(=O)Nc2ccccc2F)cnn1-c1ccccc1	inconclusive: -12.4%
Cc1ccc(CN2CCN(CC(=O)NCc3ccccc3)CC2)cc1	inconclusive: -16.6%
O=C(O)c1cccc2c1Cc1cc([N+](=O)[O-])ccc1-2	inactive: -7.2%
Clc1ccccc1CN1CCN(/N=C/C=C/c2ccco2)CC1	inconclusive: 31.3%
CCCC12CN3CC(C)(CN(C1)C3c1ccc([N+](=O)[O-])o1)C2=O (stereo unspecified)	inconclusive: -58.6%
COc1cccc(NC(=O)c2cccc(S(=O)(=O)N3CCN(Cc4ccccc4)CC3)c2)c1	inactive: 11.7%
O=C(CSc1nncs1)Nc1cc(S(=O)(=O)N2CCOCC2)ccc1N1CCCC1	inconclusive: -2.8%
O=C(/C=C/c1cccc(Cl)c1)NNC(=O)c1ccncc1	inconclusive: -7.1%
CCCCOc1ccc(/C=C(\C#N)C(=O)NC2CC2)cc1	active: 50.5%
CC1(C)CCC(=O)c2ccccc21	inactive: -7.3%
Cc1ccc(NC(=O)CS(=O)CC(=O)N(CC(=O)NC(C)(C)C)c2cccc(C)c2C)cc1 (stereo unspecified)	inactive: -10.9%
CCOc1ccc(-n2c(SCC(N)=O)nnc2-c2cccnc2)cc1	inconclusive: 39.2%
COC(=O)CCCC(=O)N1CCCC(N(C)CCc2ccccc2)C1 (stereo unspecified)	inconclusive: -30.6%
COc1cccc(OCC(O)CN2CCN(CCN3C(=O)c4cccc5cccc(c45)C3=O)CC2)c1 (stereo unspecified)	inactive: -4.1%
COc1ccc(OCc2cc(C(=O)N3CCOCC3)no2)c(Cl)c1	inactive: -1.2%
Cc1noc(C)c1CSc1nnc(-c2cc(Cl)ccc2Cl)n1N	inactive: 0.4%
CCN(CC)c1ccc(NC(=O)c2ccc(Cl)nc2)cc1	inconclusive: -4.7%
CCCOc1ccc(CC(=O)N/N=C\c2ccc(F)cc2)cc1	inconclusive: 16.9%
Cc1cc(C(=O)Nc2cccc3c2O[C@H](CN(C)CC2CC2)[C@@H](C)CN([C@H](C)CO)C3=O)n(C)n1	inactive: -5.3%

Gathered by group, the compounds so far containing a furan ring, fused or not
SMILES	inhibition
Clc1ccccc1CN1CCN(/N=C/C=C/c2ccco2)CC1	inconclusive: 31.3%
CCCC12CN3CC(C)(CN(C1)C3c1ccc([N+](=O)[O-])o1)C2=O (stereo unspecified)	inconclusive: -58.6%
